This passage reports IC50 results from paper PMC10428001 (Cancer research, 2022).

The test relates to Ba/F3 cells HER2 755_757LREdelinsRP. Put plainly: Ba/F3 cell viability. The class given is cell-based. To be noted: Mus musculus, BaF3, 72 h, read-out: IC50 (average ± SD).

The term IC50 denotes the midpoint of a concentration-inhibition curve.

Turning to `COc1cc2ncnc(Nc3ccc(F)c(Cl)c3)c2cc1OCCCN1CCOCC1` [gefitinib], the IC50 worked out at 0.558 ± 0.155 µM.
